{"source": "the supplement of paper PMC8728848", "binders": {"B1": {"name": "Latrophilin-3 (Homo sapiens), Q9HAR2 (protein)", "chain": "MWPSQLLIFMMLLAPIIHAFSRAPIPMAVVRRELSCESYPIELRCPGTDVIMIESANYGRTDDKICDSDPAQMENIRCYLPDAYKIMSQRCNNRTQCAVVAGPDVFPDPCPGTYKYLEVQYECVPYKVEQKVFLCPGLLKGVYQSEHLFESDHQSGAWCKDPLQASDKIYYMPWTPYRTDTLTEYSSKDDFIAGRPTTTYKLPHRVDGTGFVVYDGALFFNKERTRNIVKFDLRTRIKSGEAIIANANYHDTSPYRWGGKSDIDLAVDENGLWVIYATEQNNGKIVISQLNPYTLRIEGTWDTAYDKRSASNAFMICGILYVVKSVYEDDDNEATGNKIDYIYNTDQSKDSLVDVPFPNSYQYIAAVDYNPRDNLLYVWNNYHVVKYSLDFGPLDSRSGQAHHGQVSYISPPIHLDSELERPSVKDISTTGPLGMGSTTTSTTLRTTTLSPGRSTTPSVSGRRNRSTSTPSPAVEVLDDMTTHLPSASSQIPALEESCEAVEAREIMWFKTRQGQIAKQPCPAGTIGVSTYLCLAPDGIWDPQGPDLSNCSSPWVNHITQKLKSGETAANIARELAEQTRNHLNAGDITYSVRAMDQLVGLLDVQLRNLTPGGKDSAARSLNKAMVETVNNLLQPQALNAWRDLTTSDQLRAATMLLHTVEESAFVLADNLLKTDIVRENTDNIKLEVARLSTEGNLEDLKFPENMGHGSTIQLSANTLKQNGRNGEIRVAFVLYNNLGPYLSTENASMKLGTEALSTNHSVIVNSPVITAAINKEFSNKVYLADPVVFTVKHIKQSEENFNPNCSFWSYSKRTMTGYWSTQGCRLLTTNKTHTTCSCNHLTNFAVLMAHVEVKHSDAVHDLLLDVITWVGILLSLVCLLICIFTFCFFRGLQSDRNTIHKNLCISLFVAELLFLIGINRTDQPIACAVFAALLHFFFLAAFTWMFLEGVQLYIMLVEVFESEHSRRKYFYLVGYGMPALIVAVSAAVDYRSYGTDKVCWLRLDTYFIWSFIGPATLIIMLNVIFLGIALYKMFHHTAILKPESGCLDNIKSWVIGAIALLCLLGLTWAFGLMYINESTVIMAYLFTIFNSLQGMFIFIFHCVLQKKVRKEYGKCLRTHCCSGKSTESSIGSGKTSGSRTPGRYSTGSQSRIRRMWNDTVRKQSESSFITGDINSSASLNREGLLNNARDTSVMDTLPLNGNHGNSYSIASGEYLSNCVQIIDRGYNHNETALEKKILKELTSNYIPSYLNNHERSSEQNRNLMNKLVNNLGSGREDDAIVLDDATSFNHEESLGLELIHEESDAPLLPPRVYSTENHQPHHYTRRRIPQDHSESFFPLLTNEHTEDLQSPHRDSLYTSMPTLAGVAATESVTTSTQTEPPPAKCGDAEDVYYKSMPNLGSRNHVHQLHTYYQLGRGSSDGFIVPPNKDGTPPEGSSKGPAHLVTSL"}}, "test_in_all_cases": "glycan array binding signal (z-score within array); higher = stronger binding", "settings_in_all_cases": "glycan notation: IUPAC condensed, linker removed", "key": {"[1]": {"target": "Gal(b1-4)GlcNAc(b1-2)[Gal(b1-4)GlcNAc(b1-4)]Man(a1-3)[GlcNAc(b1-4)][Gal(b1-4)GlcNAc(b1-2)Man(a1-6)]Man(b1-4)GlcNAc(b1-4)GlcNAc", "method_in_brief": "(§1)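 The binding signal is a Z-score computed within each array and averaged over linkers. Arrays of the same protein sequence at different concentrations or buffers were also averaged together. Data originate from 3228 arrays in the Consortium for Functional Glycomics database, kept only where the protein sequence was available.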"}, "[2]": {"target": "Gal(b1-4)GlcNAc(b1-2)[Gal(b1-4)GlcNAc(b1-4)]Man(a1-3)[GlcNAc(b1-4)][Gal(b1-4)GlcNAc(b1-2)[Gal(b1-4)GlcNAc(b1-6)]Man(a1-6)]Man(b1-4)GlcNAc(b1-4)GlcNAc", "method_in_brief": "as §1"}, "[3]": {"target": "Gal(b1-4)GlcNAc(b1-2)[Gal(b1-4)GlcNAc(b1-4)]Man(a1-3)[GlcNAc(b1-4)][Gal(b1-4)GlcNAc(b1-2)[Gal(b1-4)GlcNAc(b1-6)]Man(a1-6)]Man(b1-4)GlcNAc(b1-4)[Fuc(a1-6)]GlcNAc", "method_in_brief": "as §1"}, "[4]": {"target": "Gal(b1-4)GlcNAc(b1-2)[Gal(b1-4)GlcNAc(b1-6)]Man(a1-6)[Gal(b1-4)GlcNAc(b1-2)Man(a1-3)]Man(b1-4)GlcNAc(b1-4)GlcNAc", "method_in_brief": "as §1"}, "[5]": {"target": "Gal(b1-4)GlcNAc(b1-2)[Gal(b1-4)GlcNAc(b1-6)]Man(a1-6)[Gal(b1-4)GlcNAc(b1-2)Man(a1-3)]Man(b1-4)GlcNAc(b1-4)[Fuc(a1-6)]GlcNAc", "method_in_brief": "as §1"}, "[6]": {"target": "Gal(b1-4)GlcNAc(b1-2)[Gal(b1-4)GlcNAc(b1-6)]Man(a1-6)[GlcNAc(b1-4)][Gal(b1-4)GlcNAc(b1-2)Man(a1-3)]Man(b1-4)GlcNAc(b1-4)GlcNAc", "method_in_brief": "as §1"}, "[7]": {"target": "Gal(b1-4)GlcNAc(b1-3)Gal(b1-3)GlcNAc", "method_in_brief": "as §1"}, "[8]": {"target": "Gal(b1-4)GlcNAc(b1-3)Gal(b1-4)Glc", "method_in_brief": "as §1"}, "[9]": {"target": "Gal(b1-4)GlcNAc(b1-3)Gal(b1-4)GlcNAc", "method_in_brief": "as §1"}, "[10]": {"target": "Gal(b1-4)GlcNAc(b1-3)Gal(b1-4)GlcNAc(b1-3)Gal(b1-4)GlcNAc", "method_in_brief": "as §1"}, "[11]": {"target": "Gal(b1-4)GlcNAc(b1-3)Gal(b1-4)[Fuc(a1-3)GlcNAc(b1-6)]Gal(b1-4)Glc", "method_in_brief": "as §1"}, "[12]": {"target": "Gal(b1-4)GlcNAc(b1-3)Gal(b1-4)[Fuc(a1-3)]GlcNAc(b1-3)Gal(b1-4)[Fuc(a1-3)]GlcNAc", "method_in_brief": "as §1"}, "[13]": {"target": "Gal(b1-4)GlcNAc(b1-3)GalNAc", "method_in_brief": "as §1"}, "[14]": {"target": "Gal(b1-4)GlcNAc(b1-3)[Gal(b1-4)GlcNAc(b1-6)]Gal(b1-4)GlcNAc", "method_in_brief": "as §1"}, "[15]": {"target": "Gal(b1-4)GlcNAc(b1-3)[Gal(b1-4)GlcNAc(b1-6)]GalNAc", "method_in_brief": "as §1"}, "[16]": {"target": "Gal(b1-4)GlcNAc(b1-3)[GlcNAc(b1-6)]Gal(b1-4)GlcNAc", "method_in_brief": "as §1"}, "[17]": {"target": "Gal(b1-4)GlcNAc(b1-6)Gal(b1-4)GlcNAc", "method_in_brief": "as §1"}, "[18]": {"target": "Gal(b1-4)GlcNAc(b1-6)GalNAc", "method_in_brief": "as §1"}, "[19]": {"target": "Gal(b1-4)GlcNAc(b1-6)[Gal(b1-3)]GalNAc", "method_in_brief": "as §1"}, "Gal(b1-4)GlcNAc6P": {"target": "Gal(b1-4)GlcNAc6P", "method_in_brief": "as §1"}, "Gal(b1-6)Gal": {"target": "Gal(b1-6)Gal", "method_in_brief": "as §1"}, "Gal3S(b1-3)GalNAc": {"target": "Gal3S(b1-3)GalNAc", "method_in_brief": "as §1"}, "Gal3S(b1-3)GlcNAc": {"target": "Gal3S(b1-3)GlcNAc", "method_in_brief": "as §1"}, "[20]": {"target": "Gal3S(b1-3)[Fuc(a1-4)]GlcNAc", "method_in_brief": "as §1"}, "Gal3S(b1-4)Glc": {"target": "Gal3S(b1-4)Glc", "method_in_brief": "as §1"}, "Gal3S(b1-4)Glc6S": {"target": "Gal3S(b1-4)Glc6S", "method_in_brief": "as §1"}, "Gal3S(b1-4)GlcNAc": {"target": "Gal3S(b1-4)GlcNAc", "method_in_brief": "as §1"}, "Gal3S(b1-4)GlcNAc6S": {"target": "Gal3S(b1-4)GlcNAc6S", "method_in_brief": "as §1"}, "[21]": {"target": "Gal3S(b1-4)[Fuc(a1-3)]Glc", "method_in_brief": "as §1"}, "[22]": {"target": "Gal3S(b1-4)[Fuc(a1-3)]Glc6S", "method_in_brief": "as §1"}}, "note": "The other results are listed elsewhere or left out.", "data": [{"binder": "B1", "values": [{"measurement": "glycan array binding signal (z-score)", "setting": "[1]", "result": 1.15}, {"measurement": "glycan array binding signal (z-score)", "setting": "[2]", "result": -1.02}, {"measurement": "glycan array binding signal (z-score)", "setting": "[3]", "result": -0.338}, {"measurement": "glycan array binding signal (z-score)", "setting": "[4]", "result": 0.342}, {"measurement": "glycan array binding signal (z-score)", "setting": "[5]", "result": -0.651}, {"measurement": "glycan array binding signal (z-score)", "setting": "[6]", "result": 0.561}, {"measurement": "glycan array binding signal (z-score)", "setting": "[7]", "result": -1.51}, {"measurement": "glycan array binding signal (z-score)", "setting": "[8]", "result": -0.24}, {"measurement": "glycan array binding signal (z-score)", "setting": "[9]", "result": -0.111}, {"measurement": "glycan array binding signal (z-score)", "setting": "[10]", "result": -0.064}, {"measurement": "glycan array binding signal (z-score)", "setting": "[11]", "result": -0.749}, {"measurement": "glycan array binding signal (z-score)", "setting": "[12]", "result": -0.225}, {"measurement": "glycan array binding signal (z-score)", "setting": "[13]", "result": 0.339}, {"measurement": "glycan array binding signal (z-score)", "setting": "[14]", "result": 3.02}, {"measurement": "glycan array binding signal (z-score)", "setting": "[15]", "result": -0.21}, {"measurement": "glycan array binding signal (z-score)", "setting": "[16]", "result": 0.968}, {"measurement": "glycan array binding signal (z-score)", "setting": "[17]", "result": -0.576}, {"measurement": "glycan array binding signal (z-score)", "setting": "[18]", "result": -0.681}, {"measurement": "glycan array binding signal (z-score)", "setting": "[19]", "result": -0.627}, {"measurement": "glycan array binding signal (z-score)", "setting": "Gal(b1-4)GlcNAc6P", "result": -0.196}, {"measurement": "glycan array binding signal (z-score)", "setting": "Gal(b1-6)Gal", "result": -0.409}, {"measurement": "glycan array binding signal (z-score)", "setting": "Gal3S(b1-3)GalNAc", "result": -0.522}, {"measurement": "glycan array binding signal (z-score)", "setting": "Gal3S(b1-3)GlcNAc", "result": -0.3}, {"measurement": "glycan array binding signal (z-score)", "setting": "[20]", "result": 0.473}, {"measurement": "glycan array binding signal (z-score)", "setting": "Gal3S(b1-4)Glc", "result": 0.224}, {"measurement": "glycan array binding signal (z-score)", "setting": "Gal3S(b1-4)Glc6S", "result": 0.343}, {"measurement": "glycan array binding signal (z-score)", "setting": "Gal3S(b1-4)GlcNAc", "result": -0.493}, {"measurement": "glycan array binding signal (z-score)", "setting": "Gal3S(b1-4)GlcNAc6S", "result": 0.227}, {"measurement": "glycan array binding signal (z-score)", "setting": "[21]", "result": -0.273}, {"measurement": "glycan array binding signal (z-score)", "setting": "[22]", "result": -0.622}]}]}
